# Source: the supplement of paper PMC8728848
# This is one part of the list.
# B1: Tp0751, 83732 (protein)
# chain: MSYYHHHHHHLESTSLYKKAGFQHGHVPPRRIPPHDTFGALPTAALPSNARDTAAHPSDTADNTSGSSTTTDPRSHGNAPPAPVGGAAQTHTQPPVQTAMRIALWNRATHGEQGALQHLLAGLWIQTEISPNSGDIHPLLFFDREHAEITFSRASVQEIFLVDSAHTHRKTVSFLTRNTAISSIRRRLEVTFESHEVIHVRAVEDVARLKIGSTSMWDGQYTRYHAGPASAPSP
# Experiments:
# Assay in all cases: glycan array binding signal (z-score within array); higher = stronger binding
# Details in all cases: glycan notation: IUPAC condensed, linker removed
# [1] = biological target: GalNAc(b1-4)GlcNAc(b1-2)Man
# Method in brief: (§1)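 Glycan array data were curated from 3228 arrays in the Consortium for Functional Glycomics database and kept only where the protein sequence was available. Glycan names were converted to IUPAC-condensed notation, and columns mapping to the same glycan were averaged. The binding signal is a within-array Z-score, averaged across arrays of the same protein sequence at different concentrations or buffers and across linkers. Negative Z-scores can be read as non-binding.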
# [2] = biological target: GalNAc(b1-4)GlcNAc(b1-2)Man(a1-3)[GalNAc(b1-4)GlcNAc(b1-2)Man(a1-6)]Man(b1-4)GlcNAc(b1-4)GlcNAc
# Method in brief: as §1
# [3] = biological target: GalNAc(b1-4)GlcNAc(b1-3)GalNAc(b1-4)GlcNAc
# Method in brief: as §1
# GalNAc(b1-4)GlcNAc6S = biological target: GalNAc(b1-4)GlcNAc6S
# Method in brief: as §1
# GalNAc(b1-6)GalNAc = biological target: GalNAc(b1-6)GalNAc
# Method in brief: as §1
# GalNAc3S(b1-4)GlcNAc = biological target: GalNAc3S(b1-4)GlcNAc
# Method in brief: as §1
# GalNAc3S(b1-4)GlcNAc3S = biological target: GalNAc3S(b1-4)GlcNAc3S
# Method in brief: as §1
# [4] = biological target: GalNAc3S(b1-4)[Fuc(a1-3)]GlcNAc
# Method in brief: as §1
# GalNAc4S6S(b1-4)GlcNAc = biological target: GalNAc4S6S(b1-4)GlcNAc
# Method in brief: as §1
# GalNAc6S(b1-4)GlcNAc = biological target: GalNAc6S(b1-4)GlcNAc
# Method in brief: as §1
# Glc(a1-4)Glc = biological target: Glc(a1-4)Glc
# Method in brief: as §1
# [5] = biological target: Glc(a1-4)Glc(a1-4)Glc(a1-4)Glc
# Method in brief: as §1
# Glc(a1-6)Glc(a1-6)Glc = biological target: Glc(a1-6)Glc(a1-6)Glc
# Method in brief: as §1
# [6] = biological target: Glc(a1-6)Glc(a1-6)Glc(a1-6)Glc
# Method in brief: as §1
# Glc(b1-4)Glc = biological target: Glc(b1-4)Glc
# Method in brief: as §1
# Glc(b1-6)Glc = biological target: Glc(b1-6)Glc
# Method in brief: as §1
# GlcA(b1-3)Gal = biological target: GlcA(b1-3)Gal
# Method in brief: as §1
# GlcA(b1-3)GlcNAc = biological target: GlcA(b1-3)GlcNAc
# Method in brief: as §1
# GlcA(b1-6)Gal = biological target: GlcA(b1-6)Gal
# Method in brief: as §1
# [7] = biological target: GlcA3S(b1-3)Gal(b1-4)GlcNAc(b1-2)Man
# Method in brief: as §1
# [8] = biological target: GlcA3S(b1-3)Gal(b1-4)GlcNAc(b1-3)Gal(b1-4)Glc
# Method in brief: as §1
# [9] = biological target: GlcNAc(a1-3)Gal(b1-4)GlcNAc
# Method in brief: as §1
# [10] = biological target: GlcNAc(a1-4)Gal(b1-3)GlcNAc
# Method in brief: as §1
# [11] = biological target: GlcNAc(a1-4)Gal(b1-4)GalNAc
# Method in brief: as §1
# [12] = biological target: GlcNAc(a1-4)Gal(b1-4)GlcNAc
# Method in brief: as §1
# [13] = biological target: GlcNAc(a1-4)Gal(b1-4)GlcNAc(b1-3)Gal(b1-4)Glc
# Method in brief: as §1
# [14] = biological target: GlcNAc(a1-4)Gal(b1-4)GlcNAc(b1-3)Gal(b1-4)GlcNAc
# Method in brief: as §1
# [15] = biological target: GlcNAc(a1-4)Gal(b1-4)GlcNAc(b1-3)Gal(b1-4)GlcNAc(b1-3)Gal(b1-4)GlcNAc
# Method in brief: as §1
# [16] = biological target: GlcNAc(a1-4)Gal(b1-4)GlcNAc(b1-3)Gal(b1-4)[Fuc(a1-3)]GlcNAc(b1-3)Gal(b1-4)[Fuc(a1-3)]GlcNAc
# Method in brief: as §1
# [17] = biological target: GlcNAc(a1-6)Gal(b1-4)GlcNAc
# Method in brief: as §1
# [18] = biological target: GlcNAc(b1-2)Gal(b1-3)GalNAc
# Method in brief: as §1
# [19] = biological target: GlcNAc(b1-2)Man(a1-3)[GlcNAc(b1-2)Man(a1-6)]Man(b1-4)GlcNAc(b1-4)GlcNAc
# Method in brief: as §1
# [20] = biological target: GlcNAc(b1-2)Man(a1-3)[GlcNAc(b1-2)Man(a1-6)]Man(b1-4)GlcNAc(b1-4)[Fuc(a1-6)]GlcNAc
# Method in brief: as §1
# [21] = biological target: GlcNAc(b1-2)Man(a1-3)[GlcNAc(b1-4)][GlcNAc(b1-2)Man(a1-6)]Man(b1-4)GlcNAc(b1-4)GlcNAc
# Method in brief: as §1
# [22] = biological target: GlcNAc(b1-2)Man(a1-3)[GlcNAc(b1-4)][GlcNAc(b1-2)Man(a1-6)]Man(b1-4)GlcNAc(b1-4)[Fuc(a1-6)]GlcNAc
# Method in brief: as §1
# [23] = biological target: GlcNAc(b1-2)[GlcNAc(b1-4)]Man(a1-3)[GlcNAc(b1-2)Man(a1-6)]Man(b1-4)GlcNAc(b1-4)GlcNAc
# Method in brief: as §1
# [24] = biological target: GlcNAc(b1-2)[GlcNAc(b1-4)]Man(a1-3)[GlcNAc(b1-4)][GlcNAc(b1-2)Man(a1-6)]Man(b1-4)GlcNAc(b1-4)GlcNAc
# Method in brief: as §1
# [25] = biological target: GlcNAc(b1-2)[GlcNAc(b1-4)]Man(a1-3)[GlcNAc(b1-4)][GlcNAc(b1-2)[GlcNAc(b1-6)]Man(a1-6)]Man(b1-4)GlcNAc(b1-4)GlcNAc
# Method in brief: as §1
# [26] = biological target: GlcNAc(b1-2)[GlcNAc(b1-4)]Man(a1-3)[GlcNAc(b1-4)][GlcNAc(b1-2)[GlcNAc(b1-6)]Man(a1-6)]Man(b1-4)GlcNAc(b1-4)[Fuc(a1-6)]GlcNAc
# Method in brief: as §1
# [27] = biological target: GlcNAc(b1-2)[GlcNAc(b1-6)]Man(a1-6)[GlcNAc(b1-2)Man(a1-3)]Man(b1-4)GlcNAc(b1-4)GlcNAc
# Method in brief: as §1
# [28] = biological target: GlcNAc(b1-2)[GlcNAc(b1-6)]Man(a1-6)[GlcNAc(b1-2)Man(a1-3)]Man(b1-4)GlcNAc(b1-4)[Fuc(a1-6)]GlcNAc
# Method in brief: as §1
# [29] = biological target: GlcNAc(b1-2)[GlcNAc(b1-6)]Man(a1-6)[GlcNAc(b1-4)][GlcNAc(b1-2)Man(a1-3)]Man(b1-4)GlcNAc(b1-4)GlcNAc
# Method in brief: as §1
# GlcNAc(b1-3)Fuc = biological target: GlcNAc(b1-3)Fuc
# Method in brief: as §1
# GlcNAc(b1-3)Gal = biological target: GlcNAc(b1-3)Gal
# Method in brief: as §1
# [30] = biological target: GlcNAc(b1-3)Gal(b1-3)GalNAc
# Method in brief: as §1
binder,measurement,setting,value
B1,glycan array binding signal (z-score),[1],-0.66
same,glycan array binding signal (z-score),[2],-0.09
same,glycan array binding signal (z-score),[3],-0.349
same,glycan array binding signal (z-score),GalNAc(b1-4)GlcNAc6S,-0.636
same,glycan array binding signal (z-score),GalNAc(b1-6)GalNAc,-0.377
same,glycan array binding signal (z-score),GalNAc3S(b1-4)GlcNAc,-0.502
same,glycan array binding signal (z-score),GalNAc3S(b1-4)GlcNAc3S,-0.623
same,glycan array binding signal (z-score),[4],-0.122
same,glycan array binding signal (z-score),GalNAc4S6S(b1-4)GlcNAc,0.019
same,glycan array binding signal (z-score),GalNAc6S(b1-4)GlcNAc,-0.223
same,glycan array binding signal (z-score),Glc(a1-4)Glc,-0.341
same,glycan array binding signal (z-score),[5],0.763
same,glycan array binding signal (z-score),Glc(a1-6)Glc(a1-6)Glc,0.038
same,glycan array binding signal (z-score),[6],1.24
same,glycan array binding signal (z-score),Glc(b1-4)Glc,-0.041
same,glycan array binding signal (z-score),Glc(b1-6)Glc,0.069
same,glycan array binding signal (z-score),GlcA(b1-3)Gal,0.793
same,glycan array binding signal (z-score),GlcA(b1-3)GlcNAc,0.084
same,glycan array binding signal (z-score),GlcA(b1-6)Gal,-0.172
same,glycan array binding signal (z-score),[7],-0.086
same,glycan array binding signal (z-score),[8],-0.3
same,glycan array binding signal (z-score),[9],-0.537
same,glycan array binding signal (z-score),[10],-0.149
same,glycan array binding signal (z-score),[11],-0.219
same,glycan array binding signal (z-score),[12],0.021
same,glycan array binding signal (z-score),[13],-0.55
same,glycan array binding signal (z-score),[14],-0.145
same,glycan array binding signal (z-score),[15],-0.214
same,glycan array binding signal (z-score),[16],1.63
same,glycan array binding signal (z-score),[17],0.248
same,glycan array binding signal (z-score),[18],-0.378
same,glycan array binding signal (z-score),[19],0.716
same,glycan array binding signal (z-score),[20],0.127
same,glycan array binding signal (z-score),[21],-0.545
same,glycan array binding signal (z-score),[22],-0.665
same,glycan array binding signal (z-score),[23],0.091
same,glycan array binding signal (z-score),[24],-0.351
same,glycan array binding signal (z-score),[25],-0.179
same,glycan array binding signal (z-score),[26],-0.299
same,glycan array binding signal (z-score),[27],-0.073
same,glycan array binding signal (z-score),[28],0.781
same,glycan array binding signal (z-score),[29],-0.584
same,glycan array binding signal (z-score),GlcNAc(b1-3)Fuc,-0.135
same,glycan array binding signal (z-score),GlcNAc(b1-3)Gal,-0.494
same,glycan array binding signal (z-score),[30],-0.282
